Values from PubChem BioAssay AID504793 (Drosophila RNAi Screening Center, 2011)
The screen tested about 23,000 reagents; below is a random part of those that have a named target and a result. Over the whole deposit, 62 (0.27%) are marked active. 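Calls come from follow-up tests whose scores are not deposited, so confirmed genes may have low counts here; counts are not normalised per plate.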 The raw values are shown without normalisation. Reagents against one gene are numbered here. Names joined by + are all predicted targets of the reagent. No sequences are given here.

Test: 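Knock-downs allowing continued mitosis even though DNA is damaged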 (primary screen)
System: Drosophila S2R+ cells
Knock-down reagent: long dsRNA against Drosophila genes, about 0.25 µg dsRNA per well
Time to read-out: 4 days of dsRNA, then 4 hours of drug before read-out
Conditions: doxorubicin 0.5 µM for 4 hours to cause double-strand breaks, in cells also given a low, harmless dose of dsRNA against nbs to sensitise the assay
Detection: 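Per-well count of mitotic cells stained for phospho-histone H3 after doxorubicin exposure, used as mitotic index; counts are raw and not normalised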
Scale: mitotic cells: higher = more cells in mitosis, weaker G2 arrest
Active means: 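Genes are called active only when high mitotic counts were reproduced with independent dsRNAs and mitosis was checked for delay without damage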
Meaning of the calls: active = confirmed in follow-up tests; inactive = not confirmed

| target | dsRNA no. | mitotic cells, replicate 1 | call |
| --- | --- | --- | --- |
| UQCR-C2 (Ubiquinol-cytochrome c reductase core protein 2) | 1 | 6 | inactive |
| UQCR-C2 (Ubiquinol-cytochrome c reductase core protein 2) | 2 | 1 | inactive |
| CG16952 | 1 | 7 | inactive |
| Cad99C (Cadherin 99C) | 1 | 13 | inactive |
| Cad99C (Cadherin 99C) | 2 | 2 | inactive |
| CG17030 | 1 | 7 | inactive |
| Pal2 (Peptidyl-alpha-hydroxyglycine-alpha-amidating lyase 2) | 1 | 4 | inactive |
| CG32087 | 1 | 12 | inactive |
| CG32087 | 2 | 5 | inactive |
| Mat89Ba (Maternal transcript 89Ba) | 1 | 5 | inactive |
| Mat89Ba (Maternal transcript 89Ba) | 2 | 6 | inactive |
| CG7907 | 1 | 18 | inactive |
| CG7907 | 2 | 4 | inactive |
| CG16721 | 1 | 4 | inactive |
| CG5986 | 1 | 6 | inactive |
| CG5986 | 2 | 4 | inactive |
| CG9356 | 1 | 6 | inactive |
| CG13613 | 1 | 11 | inactive |
| phyl (phyllopod) | 1 | 5 | inactive |
| phyl (phyllopod) | 2 | 4 | inactive |
| CG33285 | 1 | 6 | inactive |
| CG33285 | 2 | 5 | inactive |
| Nlg4 (Neuroligin 4) | 1 | 10 | inactive |
| Nlg4 (Neuroligin 4) | 2 | 9 | inactive |
| Nlg4 (Neuroligin 4) | 3 | 11 | inactive |
| Nlg4 (Neuroligin 4) | 4 | 7 | inactive |
| Nlg4 (Neuroligin 4) | 5 | 11 | inactive |
| Nlg4 (Neuroligin 4) | 6 | 1 | inactive |
| Cks85A (Cyclin-dependent kinase subunit 85A) | 1 | 4 | inactive |
| Ppat-Dpck | 1 | 2 | inactive |
| Rnf146 (Ring finger protein 146) | 1 | 6 | inactive |
| Ptip (PAX transcription activation domain interacting protein) | 1 | 11 | inactive |
| Ptip (PAX transcription activation domain interacting protein) | 2 | 13 | inactive |
| Rbp9 (RNA-binding protein 9) | 1 | 4 | inactive |
| Rbp9 (RNA-binding protein 9) | 2 | 1 | inactive |
| Rbp9 (RNA-binding protein 9) | 3 | 7 | inactive |
| Mipp2 (Multiple inositol polyphosphate phosphatase 2) | 1 | 8 | inactive |
| Rpt3 (Regulatory particle triple-A ATPase 3) | 1 | 80 | inactive |
| Rpt3 (Regulatory particle triple-A ATPase 3) | 2 | 65 | inactive |
| CG17549 | 1 | 6 | inactive |
| CG6738 | 1 | 11 | inactive |
| CG6738 | 2 | 1 | inactive |
| Caper | 1 | 7 | inactive |

Not a retest: an excerpt of the list.
| target | dsRNA no. | mitotic cells, replicate 1 | call |
| --- | --- | --- | --- |
| Pal2 (Peptidyl-alpha-hydroxyglycine-alpha-amidating lyase 2) | 1 | 4 | inactive |
| CG32087 | 1 | 12 | inactive |
| CG32087 | 2 | 5 | inactive |
| Mat89Ba (Maternal transcript 89Ba) | 1 | 5 | inactive |
| Mat89Ba (Maternal transcript 89Ba) | 2 | 6 | inactive |

Further results:
| target | dsRNA no. | mitotic cells, replicate 1 | call |
| --- | --- | --- | --- |
| BBS4 (Bardet-Biedl syndrome 4) | 1 | 17 | inactive |
| BBS4 (Bardet-Biedl syndrome 4) | 2 | 2 | inactive |
| mtsh (mitoshell) | 1 | 1 | inactive |
| ICA69 (Islet cell autoantigen 69 kDa) | 1 | 6 | inactive |
| osy (oskyddad) | 1 | 13 | inactive |
| osy (oskyddad) | 2 | 7 | inactive |
| osy (oskyddad) | 3 | 11 | inactive |
| Fit1 (Fermitin 1) | 1 | 4 | inactive |
| Fit1 (Fermitin 1) | 2 | 1 | inactive |
| AttD (Attacin-D) | 1 | 4 | inactive |
| CG5377 | 1 | 5 | inactive |
| CG5377 | 2 | 4 | inactive |
| neb (nebbish) | 1 | 4 | inactive |
| neb (nebbish) | 2 | 5 | inactive |
| Zyx (Zyxin) | 1 | 6 | inactive |
| CG7772 | 1 | 3 | inactive |
| Usp32 (Ubiquitin specific protease 32) | 1 | 5 | inactive |
| Tep1 (Thioester-containing protein 1) | 1 | 6 | inactive |
| Tep1 (Thioester-containing protein 1) | 2 | 6 | inactive |
| cona (corona) | 1 | 9 | inactive |
| CG32198 | 1 | 9 | inactive |
| CG32198 | 2 | 3 | inactive |
| CG13920 | 1 | 5 | inactive |
| Task6 (TWIK-related acid-sensitive K[+] channel 6) | 1 | 3 | inactive |
| CR18275 + CR18166 + CG32817 | 1 | 9 | inactive |
| CG31272 | 1 | 4 | inactive |
| CG9662 | 1 | 6 | inactive |
| Alp6 (Alkaline phosphatase 6) | 1 | 4 | inactive |
| eff (effete) | 1 | 2 | inactive |
| eff (effete) | 2 | 13 | inactive |
| CG4281 | 1 | 3 | inactive |
| CG4281 | 2 | 4 | inactive |
